Results: paper doi:10.1101/2023.10.20.563357
Results are given in words; binding and its absence hold for the method and conditions named. In cells and extracts the contact can be indirect. Some entries that bind do so weakly or less than the wild type.

Target: MBP-tagged PHF21A-c from insect cells (UniProt Q96BD5)
Test: pull-down + SEC

## CoREST, recombinant from insect cells (from UniProt Q9UKL0 1-485)
  binding: binds
